Common to all, as to details: stereoisomer not certain
The test system of experiment [1] is T1, OR2W1.
T1 sequence (whole entry): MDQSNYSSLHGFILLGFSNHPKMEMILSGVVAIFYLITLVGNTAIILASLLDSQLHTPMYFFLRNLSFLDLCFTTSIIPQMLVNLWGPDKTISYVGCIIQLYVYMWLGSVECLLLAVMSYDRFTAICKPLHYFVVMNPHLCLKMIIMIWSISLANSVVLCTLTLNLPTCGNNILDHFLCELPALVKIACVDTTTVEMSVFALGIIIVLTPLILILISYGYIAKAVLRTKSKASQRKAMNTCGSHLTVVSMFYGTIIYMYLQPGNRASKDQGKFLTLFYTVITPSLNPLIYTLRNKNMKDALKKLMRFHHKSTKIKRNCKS
Summed up:
(§1)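 Assay methods differ from source to source, frequently being transient luciferase assays in mammalian cell lines. For each receptor–molecule pair, the label responsive (active) applies when the original authors judged the measured signal statistically different from baseline, and non-responsive (inactive) applies otherwise.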

Chains of the proteins cited; added tags and fusions are not shown. A line that says so, or that is headed by a name, gives the form on record, which may keep a tag or linker.
OR2W1, as listed by the source: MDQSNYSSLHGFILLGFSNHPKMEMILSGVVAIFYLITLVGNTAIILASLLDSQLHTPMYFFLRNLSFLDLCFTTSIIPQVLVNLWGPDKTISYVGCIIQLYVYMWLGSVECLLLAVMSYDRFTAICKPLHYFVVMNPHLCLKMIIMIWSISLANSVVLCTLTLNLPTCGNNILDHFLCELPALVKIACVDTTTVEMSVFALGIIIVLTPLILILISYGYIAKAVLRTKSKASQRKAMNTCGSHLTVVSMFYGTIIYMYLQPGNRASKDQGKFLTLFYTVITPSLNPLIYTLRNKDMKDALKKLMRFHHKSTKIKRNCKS

The subject of the next experiment is T2, OR2W3.
T2 sequence (whole entry): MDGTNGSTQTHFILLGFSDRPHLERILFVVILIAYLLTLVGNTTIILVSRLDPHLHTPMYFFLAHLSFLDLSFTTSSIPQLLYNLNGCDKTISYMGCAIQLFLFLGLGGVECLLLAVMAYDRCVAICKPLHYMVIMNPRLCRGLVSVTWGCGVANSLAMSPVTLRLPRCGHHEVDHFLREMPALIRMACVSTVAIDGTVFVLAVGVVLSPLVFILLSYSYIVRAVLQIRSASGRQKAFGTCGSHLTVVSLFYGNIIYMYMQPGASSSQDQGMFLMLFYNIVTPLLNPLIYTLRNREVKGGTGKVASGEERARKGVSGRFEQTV
Summed up: as §1

In another experiment the target is T3, OR2W5P (Homo sapiens) (UniProt A6NFC9).
T3 sequence (whole entry): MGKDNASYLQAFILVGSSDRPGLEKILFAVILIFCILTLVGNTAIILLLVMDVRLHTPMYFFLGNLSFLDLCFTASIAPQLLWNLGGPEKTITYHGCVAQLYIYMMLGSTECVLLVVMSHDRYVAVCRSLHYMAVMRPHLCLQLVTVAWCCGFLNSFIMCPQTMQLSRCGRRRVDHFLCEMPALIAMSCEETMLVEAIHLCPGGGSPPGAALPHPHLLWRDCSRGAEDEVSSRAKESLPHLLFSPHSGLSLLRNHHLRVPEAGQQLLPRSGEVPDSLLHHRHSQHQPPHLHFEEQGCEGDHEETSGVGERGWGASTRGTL
Summed up:
as §1

The subject of another experiment is T4, OR2Y1.
T4 sequence (whole entry): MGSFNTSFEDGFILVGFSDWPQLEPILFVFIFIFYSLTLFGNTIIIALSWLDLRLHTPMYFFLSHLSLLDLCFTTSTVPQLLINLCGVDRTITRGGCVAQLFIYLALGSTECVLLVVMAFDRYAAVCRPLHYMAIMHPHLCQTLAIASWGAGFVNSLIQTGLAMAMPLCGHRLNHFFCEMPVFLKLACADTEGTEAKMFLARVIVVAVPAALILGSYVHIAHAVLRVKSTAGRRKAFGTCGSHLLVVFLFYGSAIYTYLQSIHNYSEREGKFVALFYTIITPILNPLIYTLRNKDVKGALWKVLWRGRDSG
In short, it runs like this:
as §1

The next experiment concerns the target T5, OR2Z1 (Homo sapiens) (UniProt Q8NG97).
T5 sequence (whole entry): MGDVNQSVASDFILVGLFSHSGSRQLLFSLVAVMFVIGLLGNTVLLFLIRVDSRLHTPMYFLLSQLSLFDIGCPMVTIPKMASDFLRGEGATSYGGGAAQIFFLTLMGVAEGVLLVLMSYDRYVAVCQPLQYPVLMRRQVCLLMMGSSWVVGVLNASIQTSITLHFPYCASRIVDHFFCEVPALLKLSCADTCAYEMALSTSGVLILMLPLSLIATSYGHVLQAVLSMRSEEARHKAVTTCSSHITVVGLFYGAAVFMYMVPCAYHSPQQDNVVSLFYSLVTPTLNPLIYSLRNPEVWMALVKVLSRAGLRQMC
In short, it runs like this:
as §1

The target in a further experiment is T6, OR3A1 (Homo sapiens) (UniProt P47881).
T6 sequence (whole entry): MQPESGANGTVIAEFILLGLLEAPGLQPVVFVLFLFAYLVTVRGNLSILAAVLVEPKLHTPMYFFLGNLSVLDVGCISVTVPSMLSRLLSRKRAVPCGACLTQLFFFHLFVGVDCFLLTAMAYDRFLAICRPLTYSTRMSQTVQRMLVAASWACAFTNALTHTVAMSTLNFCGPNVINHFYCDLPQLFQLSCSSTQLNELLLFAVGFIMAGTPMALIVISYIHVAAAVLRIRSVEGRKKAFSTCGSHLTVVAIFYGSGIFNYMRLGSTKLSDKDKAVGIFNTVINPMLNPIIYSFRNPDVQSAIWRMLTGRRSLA
In short, it runs like this: as §1

A further experiment addresses T7, OR3A2 (Homo sapiens) (UniProt P47893).
T7 sequence (whole entry): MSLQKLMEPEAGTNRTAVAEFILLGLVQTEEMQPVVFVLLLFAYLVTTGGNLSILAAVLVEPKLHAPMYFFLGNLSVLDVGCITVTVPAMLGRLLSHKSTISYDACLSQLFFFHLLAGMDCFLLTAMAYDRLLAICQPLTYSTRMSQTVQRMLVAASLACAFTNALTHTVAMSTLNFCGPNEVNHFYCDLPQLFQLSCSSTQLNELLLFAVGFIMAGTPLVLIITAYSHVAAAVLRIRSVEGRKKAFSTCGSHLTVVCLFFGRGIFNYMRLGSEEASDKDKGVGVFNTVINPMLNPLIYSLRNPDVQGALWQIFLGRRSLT
In short, it runs like this: as §1

In another experiment the test system is T8, OR3A3.
T8 sequence (whole entry): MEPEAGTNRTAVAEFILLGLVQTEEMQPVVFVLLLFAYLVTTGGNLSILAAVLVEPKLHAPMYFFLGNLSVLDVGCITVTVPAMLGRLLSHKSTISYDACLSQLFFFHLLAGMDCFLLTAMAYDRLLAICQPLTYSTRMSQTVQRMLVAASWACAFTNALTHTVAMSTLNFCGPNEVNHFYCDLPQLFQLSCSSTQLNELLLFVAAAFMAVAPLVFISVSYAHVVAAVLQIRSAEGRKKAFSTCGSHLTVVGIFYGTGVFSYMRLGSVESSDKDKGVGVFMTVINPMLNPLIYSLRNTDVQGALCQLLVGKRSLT
In short, it runs like this: as §1

The subject of another experiment is T9, OR3A4.
T9 sequence (whole entry): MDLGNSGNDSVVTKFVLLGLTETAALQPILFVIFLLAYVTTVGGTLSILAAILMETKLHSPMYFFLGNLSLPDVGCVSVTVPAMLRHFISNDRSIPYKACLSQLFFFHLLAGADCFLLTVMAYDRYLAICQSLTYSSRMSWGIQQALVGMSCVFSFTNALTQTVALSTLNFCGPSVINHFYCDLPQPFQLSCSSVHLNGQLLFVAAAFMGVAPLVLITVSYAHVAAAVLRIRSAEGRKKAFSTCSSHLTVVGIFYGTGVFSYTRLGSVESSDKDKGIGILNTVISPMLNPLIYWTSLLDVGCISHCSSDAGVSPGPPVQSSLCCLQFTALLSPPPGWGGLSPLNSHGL
Summed up: as §1

Another experiment has as its target T10, OR4A16 (Homo sapiens) (UniProt Q8NH70).
T10 sequence (whole entry): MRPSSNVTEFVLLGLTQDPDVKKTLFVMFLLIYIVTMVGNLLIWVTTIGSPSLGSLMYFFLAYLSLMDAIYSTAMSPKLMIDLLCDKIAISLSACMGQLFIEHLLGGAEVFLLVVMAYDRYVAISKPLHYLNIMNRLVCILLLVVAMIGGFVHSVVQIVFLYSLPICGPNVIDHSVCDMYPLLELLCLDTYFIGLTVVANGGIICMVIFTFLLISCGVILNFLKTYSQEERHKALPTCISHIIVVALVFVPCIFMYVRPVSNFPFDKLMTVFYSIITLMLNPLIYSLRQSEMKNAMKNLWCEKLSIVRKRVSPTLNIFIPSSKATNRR
Summed up:
as §1

In another experiment the target is T11, OR4A4P (Homo sapiens) (UniProt Q8NGN8).
T11 sequence (whole entry): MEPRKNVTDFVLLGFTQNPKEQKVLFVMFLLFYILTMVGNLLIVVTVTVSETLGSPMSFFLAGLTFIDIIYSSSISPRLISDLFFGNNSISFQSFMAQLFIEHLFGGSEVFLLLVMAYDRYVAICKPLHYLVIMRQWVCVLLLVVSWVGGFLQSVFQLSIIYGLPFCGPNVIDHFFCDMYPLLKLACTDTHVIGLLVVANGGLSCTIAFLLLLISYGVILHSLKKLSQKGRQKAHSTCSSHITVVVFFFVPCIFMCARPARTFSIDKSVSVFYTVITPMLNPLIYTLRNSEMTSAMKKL
In short, it runs like this:
as §1

The target of the next experiment is T12, OR4A5 (Homo sapiens) (UniProt Q8NH83).
T12 sequence (whole entry): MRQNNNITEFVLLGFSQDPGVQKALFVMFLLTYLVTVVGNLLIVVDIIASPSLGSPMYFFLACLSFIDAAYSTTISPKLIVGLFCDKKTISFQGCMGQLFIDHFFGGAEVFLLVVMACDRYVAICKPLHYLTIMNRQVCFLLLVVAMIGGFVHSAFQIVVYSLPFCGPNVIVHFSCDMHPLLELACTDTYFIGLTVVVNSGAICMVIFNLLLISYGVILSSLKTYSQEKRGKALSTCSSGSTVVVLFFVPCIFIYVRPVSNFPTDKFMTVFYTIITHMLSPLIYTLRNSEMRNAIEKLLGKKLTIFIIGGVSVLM
In short, it runs like this: as §1

In another experiment the test system is T13, OR4A5.
T13 sequence (whole entry): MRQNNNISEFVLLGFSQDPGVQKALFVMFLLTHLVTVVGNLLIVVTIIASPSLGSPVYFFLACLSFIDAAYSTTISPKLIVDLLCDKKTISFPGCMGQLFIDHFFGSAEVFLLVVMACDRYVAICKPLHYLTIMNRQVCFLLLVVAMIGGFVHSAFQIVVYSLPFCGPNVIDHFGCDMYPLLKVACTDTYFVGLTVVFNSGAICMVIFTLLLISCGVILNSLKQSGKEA
In short, it runs like this: as §1

Another experiment concerns the target T14, OR4B1 (Homo sapiens) (UniProt Q8NGF8).
T14 sequence (whole entry): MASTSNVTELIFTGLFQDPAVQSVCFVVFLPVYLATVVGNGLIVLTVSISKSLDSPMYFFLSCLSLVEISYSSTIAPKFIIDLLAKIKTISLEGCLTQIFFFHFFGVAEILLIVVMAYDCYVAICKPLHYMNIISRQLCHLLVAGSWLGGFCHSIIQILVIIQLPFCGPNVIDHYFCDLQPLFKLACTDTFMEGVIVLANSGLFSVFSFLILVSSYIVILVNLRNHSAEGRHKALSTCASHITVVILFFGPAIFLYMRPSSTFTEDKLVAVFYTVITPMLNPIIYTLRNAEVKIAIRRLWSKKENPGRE
In short, it runs like this: as §1

Another experiment deals with T15, OR4C11 (Homo sapiens) (UniProt Q6IEV9).
T15 sequence (whole entry): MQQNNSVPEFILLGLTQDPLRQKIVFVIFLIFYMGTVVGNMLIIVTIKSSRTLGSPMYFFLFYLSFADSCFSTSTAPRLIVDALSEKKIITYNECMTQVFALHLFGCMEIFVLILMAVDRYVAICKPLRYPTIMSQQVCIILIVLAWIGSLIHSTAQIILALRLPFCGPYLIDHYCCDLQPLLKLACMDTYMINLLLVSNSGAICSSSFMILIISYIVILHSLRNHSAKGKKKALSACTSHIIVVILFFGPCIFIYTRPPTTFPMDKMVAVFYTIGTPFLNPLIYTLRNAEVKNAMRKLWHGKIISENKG
In short, it runs like this:
as §1

Experiment [2] deals with T16, OR2W1.
T16 sequence (whole entry): T1 sequence (whole entry) with M81V, N296D
Summed up:
as §1
This is another data set of the same source.

Numbering of substitutions follows the chain as printed. Only a part is listed here, and it is no random draw. Calls are pooled over several reports, among them a noisy single-well screen. The list shows a part of the results. The list shows a part of the results.

On to `O=C1CCCCCCCCCCCC(=O)OCCO1`, for which the “odorant receptor agonist call” value in the experiment on OR2W1 [1], with OR2W3, with OR2W5P (Homo sapiens), in the experiment on OR2Y1, in the experiment with OR2Z1 (Homo sapiens) and in the experiment with OR3A1 (Homo sapiens) was “inactive” throughout. The “odorant receptor agonist call” value with OR3A2 (Homo sapiens), with OR3A3, with OR3A4, with OR4A16 (Homo sapiens), in the experiment with OR4A4P (Homo sapiens) and in the experiment on OR4A5 was “inactive” throughout. The “odorant receptor agonist call” value with OR4B1 (Homo sapiens) and in the experiment with OR4C11 (Homo sapiens) was “inactive” each time. In the experiment with OR4A5 (Homo sapiens), the “odorant receptor agonist call” value is “active”.
Consider `CC(C)(C)c1ccc(CCC=O)cc1`, for which the “odorant receptor agonist call” value in the experiment with OR2W1 [1], in the experiment with OR2W3, with OR2W5P (Homo sapiens), with OR2Y1, with OR2Z1 (Homo sapiens) and with OR3A1 (Homo sapiens) was “inactive” throughout. The “odorant receptor agonist call” value in the experiment with OR3A2 (Homo sapiens), in the experiment on OR3A3, in the experiment with OR3A4, with OR4A16 (Homo sapiens), in the experiment with OR4A4P (Homo sapiens) and in the experiment with OR4A5 (Homo sapiens) was “inactive” throughout. In addition, the “odorant receptor agonist call” value in the experiment on OR4A5, with OR4B1 (Homo sapiens) and in the experiment with OR4C11 (Homo sapiens) was “inactive” in each case.
Consider `COC(=O)c1ccccc1`, for which the “odorant receptor agonist call” value with OR2W1 [1], in the experiment with OR2Y1 and in the experiment on OR4A5 was “active” in each case. The “odorant receptor agonist call” value in the experiment on OR2W1 [2], in the experiment with OR2W3, with OR2W5P (Homo sapiens), in the experiment with OR2Z1 (Homo sapiens), with OR3A1 (Homo sapiens) and in the experiment with OR3A2 (Homo sapiens) was “inactive” in each case. For the same compound, the “odorant receptor agonist call” value in the experiment with OR4A16 (Homo sapiens), with OR4A4P (Homo sapiens), in the experiment with OR4B1 (Homo sapiens) and with OR4C11 (Homo sapiens) was “inactive” each time.

The record behind these values is the M2OR odorant receptor database.
